Source: paper doi:10.1101/2020.11.17.386763
Results are given in words; binding and its absence hold for the method and conditions named. Some results given as binding are weak or reduced against the parent protein; the word gives no strength. Sequences can lack the tags named with a protein.

Target: T1, N-terminally HA-tagged RAE-1γ (mouse) (UniProt O08604)
T1 sequence: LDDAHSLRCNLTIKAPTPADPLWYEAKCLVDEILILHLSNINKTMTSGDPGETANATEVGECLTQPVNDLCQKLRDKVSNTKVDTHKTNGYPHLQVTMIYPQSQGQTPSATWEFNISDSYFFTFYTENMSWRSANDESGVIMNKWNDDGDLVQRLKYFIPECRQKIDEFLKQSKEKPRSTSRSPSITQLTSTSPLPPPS
Assay: flow cytometry on cells

B1: Recombinant Mouse NKG2D-IgFc Chimera Protein, CF (Fc fusion, UniProt O54709 90-232)
chain: FKETFQPVLCNKEVPVSSREGYCGPCPNNWICHRNNCYQFFNEEKTWNQSQASCLSQNSSLLKIYSKEEQDFLKLVKSYHWMGLVQIPANGSWQWEDGSSLSYNQLTLVEIPKGSCAVYGSSFKAYTEDCANLNTYICMKRAV
In the case of B1, the binding is reported as “binds”.
